Some of the results follow.
What was measured:
Assay in all cases: log2 fold change, soluble protein after heating vs DMSO (PISA); higher = thermal stabilisation; K562 lysate, 10 uM; active = over 0.2 and 3.5 SD of the protein, either way, in both replicates (recomputed)
erlotinib = compound: C#Cc1cccc(Nc2ncnc3cc(OCCOC)c(OCCOC)cc23)c1 [erlotinib]
Summary of the method: (§1)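 Thermal stability, expressed as log-two fold change relative to solvent controls, is given from duplicates. Crude K562 extract in PBS pH 7.4 with 1 mM MgCl2, at 1 mg/mL protein, was treated with 10 μM compound for 30 min and heated in aliquots for 3 min across 48°C-58°C. After pooling, adjustment to 0.5% NP-40 at 4°C and centrifugation at 21,000xg for 90 min, supernatant protein was measured by TMTpro 16plex LC-MS/MS with channel sums equalised.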

Protein sequences, listed by entry. Tags and fused reporters are not part of them. Lines headed by an entry give the natural chain unless they say otherwise; changes in a name come on top.
UniProt Q9NUD5: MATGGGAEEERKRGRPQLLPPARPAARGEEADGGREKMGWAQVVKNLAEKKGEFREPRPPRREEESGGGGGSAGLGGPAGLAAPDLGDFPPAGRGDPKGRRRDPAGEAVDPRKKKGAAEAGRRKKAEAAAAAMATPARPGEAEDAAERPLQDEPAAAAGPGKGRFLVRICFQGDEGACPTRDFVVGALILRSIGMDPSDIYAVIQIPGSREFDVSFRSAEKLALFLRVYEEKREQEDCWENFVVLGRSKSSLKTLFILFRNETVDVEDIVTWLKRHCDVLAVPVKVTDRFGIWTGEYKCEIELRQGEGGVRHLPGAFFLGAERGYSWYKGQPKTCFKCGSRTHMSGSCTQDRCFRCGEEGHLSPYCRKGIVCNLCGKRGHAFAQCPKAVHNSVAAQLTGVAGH
UniProt O76080: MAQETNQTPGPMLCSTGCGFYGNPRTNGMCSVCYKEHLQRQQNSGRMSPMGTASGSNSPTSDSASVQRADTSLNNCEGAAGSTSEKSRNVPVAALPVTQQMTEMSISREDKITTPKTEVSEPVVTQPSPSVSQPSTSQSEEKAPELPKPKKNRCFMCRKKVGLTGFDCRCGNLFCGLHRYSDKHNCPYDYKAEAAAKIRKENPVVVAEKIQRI
UniProt Q9HCC9: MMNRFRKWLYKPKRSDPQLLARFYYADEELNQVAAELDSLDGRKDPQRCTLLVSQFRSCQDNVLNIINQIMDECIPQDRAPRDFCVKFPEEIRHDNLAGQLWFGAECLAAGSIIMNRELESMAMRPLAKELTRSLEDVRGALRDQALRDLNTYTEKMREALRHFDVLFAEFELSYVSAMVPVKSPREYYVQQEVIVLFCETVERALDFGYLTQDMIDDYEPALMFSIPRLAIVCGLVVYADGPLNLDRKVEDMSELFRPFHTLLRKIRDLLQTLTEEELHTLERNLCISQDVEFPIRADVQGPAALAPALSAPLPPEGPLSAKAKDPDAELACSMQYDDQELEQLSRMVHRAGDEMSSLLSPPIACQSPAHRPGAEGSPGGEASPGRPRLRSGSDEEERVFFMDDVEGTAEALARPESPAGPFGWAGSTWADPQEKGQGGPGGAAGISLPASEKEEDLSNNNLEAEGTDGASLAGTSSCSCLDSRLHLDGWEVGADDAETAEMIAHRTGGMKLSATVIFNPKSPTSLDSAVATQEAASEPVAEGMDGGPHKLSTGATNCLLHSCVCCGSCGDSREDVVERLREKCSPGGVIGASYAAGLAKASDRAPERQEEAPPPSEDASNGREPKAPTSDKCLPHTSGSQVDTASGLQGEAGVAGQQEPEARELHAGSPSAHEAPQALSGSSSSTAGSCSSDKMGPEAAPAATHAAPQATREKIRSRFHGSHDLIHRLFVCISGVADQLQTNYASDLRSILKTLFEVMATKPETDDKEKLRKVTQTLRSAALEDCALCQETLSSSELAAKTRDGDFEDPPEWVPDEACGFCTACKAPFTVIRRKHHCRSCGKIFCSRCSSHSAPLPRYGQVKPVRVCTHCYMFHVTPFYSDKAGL
UniProt Q9NPG8: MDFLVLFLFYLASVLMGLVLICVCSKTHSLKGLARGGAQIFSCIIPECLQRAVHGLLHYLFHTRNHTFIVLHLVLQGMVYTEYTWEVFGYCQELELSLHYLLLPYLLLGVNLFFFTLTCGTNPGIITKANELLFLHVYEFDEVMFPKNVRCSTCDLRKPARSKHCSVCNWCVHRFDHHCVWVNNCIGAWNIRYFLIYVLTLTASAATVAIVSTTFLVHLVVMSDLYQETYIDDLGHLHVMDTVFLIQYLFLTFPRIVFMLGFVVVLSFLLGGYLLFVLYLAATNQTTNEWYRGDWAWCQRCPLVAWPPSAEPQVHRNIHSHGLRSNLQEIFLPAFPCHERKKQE
UniProt Q86UP3: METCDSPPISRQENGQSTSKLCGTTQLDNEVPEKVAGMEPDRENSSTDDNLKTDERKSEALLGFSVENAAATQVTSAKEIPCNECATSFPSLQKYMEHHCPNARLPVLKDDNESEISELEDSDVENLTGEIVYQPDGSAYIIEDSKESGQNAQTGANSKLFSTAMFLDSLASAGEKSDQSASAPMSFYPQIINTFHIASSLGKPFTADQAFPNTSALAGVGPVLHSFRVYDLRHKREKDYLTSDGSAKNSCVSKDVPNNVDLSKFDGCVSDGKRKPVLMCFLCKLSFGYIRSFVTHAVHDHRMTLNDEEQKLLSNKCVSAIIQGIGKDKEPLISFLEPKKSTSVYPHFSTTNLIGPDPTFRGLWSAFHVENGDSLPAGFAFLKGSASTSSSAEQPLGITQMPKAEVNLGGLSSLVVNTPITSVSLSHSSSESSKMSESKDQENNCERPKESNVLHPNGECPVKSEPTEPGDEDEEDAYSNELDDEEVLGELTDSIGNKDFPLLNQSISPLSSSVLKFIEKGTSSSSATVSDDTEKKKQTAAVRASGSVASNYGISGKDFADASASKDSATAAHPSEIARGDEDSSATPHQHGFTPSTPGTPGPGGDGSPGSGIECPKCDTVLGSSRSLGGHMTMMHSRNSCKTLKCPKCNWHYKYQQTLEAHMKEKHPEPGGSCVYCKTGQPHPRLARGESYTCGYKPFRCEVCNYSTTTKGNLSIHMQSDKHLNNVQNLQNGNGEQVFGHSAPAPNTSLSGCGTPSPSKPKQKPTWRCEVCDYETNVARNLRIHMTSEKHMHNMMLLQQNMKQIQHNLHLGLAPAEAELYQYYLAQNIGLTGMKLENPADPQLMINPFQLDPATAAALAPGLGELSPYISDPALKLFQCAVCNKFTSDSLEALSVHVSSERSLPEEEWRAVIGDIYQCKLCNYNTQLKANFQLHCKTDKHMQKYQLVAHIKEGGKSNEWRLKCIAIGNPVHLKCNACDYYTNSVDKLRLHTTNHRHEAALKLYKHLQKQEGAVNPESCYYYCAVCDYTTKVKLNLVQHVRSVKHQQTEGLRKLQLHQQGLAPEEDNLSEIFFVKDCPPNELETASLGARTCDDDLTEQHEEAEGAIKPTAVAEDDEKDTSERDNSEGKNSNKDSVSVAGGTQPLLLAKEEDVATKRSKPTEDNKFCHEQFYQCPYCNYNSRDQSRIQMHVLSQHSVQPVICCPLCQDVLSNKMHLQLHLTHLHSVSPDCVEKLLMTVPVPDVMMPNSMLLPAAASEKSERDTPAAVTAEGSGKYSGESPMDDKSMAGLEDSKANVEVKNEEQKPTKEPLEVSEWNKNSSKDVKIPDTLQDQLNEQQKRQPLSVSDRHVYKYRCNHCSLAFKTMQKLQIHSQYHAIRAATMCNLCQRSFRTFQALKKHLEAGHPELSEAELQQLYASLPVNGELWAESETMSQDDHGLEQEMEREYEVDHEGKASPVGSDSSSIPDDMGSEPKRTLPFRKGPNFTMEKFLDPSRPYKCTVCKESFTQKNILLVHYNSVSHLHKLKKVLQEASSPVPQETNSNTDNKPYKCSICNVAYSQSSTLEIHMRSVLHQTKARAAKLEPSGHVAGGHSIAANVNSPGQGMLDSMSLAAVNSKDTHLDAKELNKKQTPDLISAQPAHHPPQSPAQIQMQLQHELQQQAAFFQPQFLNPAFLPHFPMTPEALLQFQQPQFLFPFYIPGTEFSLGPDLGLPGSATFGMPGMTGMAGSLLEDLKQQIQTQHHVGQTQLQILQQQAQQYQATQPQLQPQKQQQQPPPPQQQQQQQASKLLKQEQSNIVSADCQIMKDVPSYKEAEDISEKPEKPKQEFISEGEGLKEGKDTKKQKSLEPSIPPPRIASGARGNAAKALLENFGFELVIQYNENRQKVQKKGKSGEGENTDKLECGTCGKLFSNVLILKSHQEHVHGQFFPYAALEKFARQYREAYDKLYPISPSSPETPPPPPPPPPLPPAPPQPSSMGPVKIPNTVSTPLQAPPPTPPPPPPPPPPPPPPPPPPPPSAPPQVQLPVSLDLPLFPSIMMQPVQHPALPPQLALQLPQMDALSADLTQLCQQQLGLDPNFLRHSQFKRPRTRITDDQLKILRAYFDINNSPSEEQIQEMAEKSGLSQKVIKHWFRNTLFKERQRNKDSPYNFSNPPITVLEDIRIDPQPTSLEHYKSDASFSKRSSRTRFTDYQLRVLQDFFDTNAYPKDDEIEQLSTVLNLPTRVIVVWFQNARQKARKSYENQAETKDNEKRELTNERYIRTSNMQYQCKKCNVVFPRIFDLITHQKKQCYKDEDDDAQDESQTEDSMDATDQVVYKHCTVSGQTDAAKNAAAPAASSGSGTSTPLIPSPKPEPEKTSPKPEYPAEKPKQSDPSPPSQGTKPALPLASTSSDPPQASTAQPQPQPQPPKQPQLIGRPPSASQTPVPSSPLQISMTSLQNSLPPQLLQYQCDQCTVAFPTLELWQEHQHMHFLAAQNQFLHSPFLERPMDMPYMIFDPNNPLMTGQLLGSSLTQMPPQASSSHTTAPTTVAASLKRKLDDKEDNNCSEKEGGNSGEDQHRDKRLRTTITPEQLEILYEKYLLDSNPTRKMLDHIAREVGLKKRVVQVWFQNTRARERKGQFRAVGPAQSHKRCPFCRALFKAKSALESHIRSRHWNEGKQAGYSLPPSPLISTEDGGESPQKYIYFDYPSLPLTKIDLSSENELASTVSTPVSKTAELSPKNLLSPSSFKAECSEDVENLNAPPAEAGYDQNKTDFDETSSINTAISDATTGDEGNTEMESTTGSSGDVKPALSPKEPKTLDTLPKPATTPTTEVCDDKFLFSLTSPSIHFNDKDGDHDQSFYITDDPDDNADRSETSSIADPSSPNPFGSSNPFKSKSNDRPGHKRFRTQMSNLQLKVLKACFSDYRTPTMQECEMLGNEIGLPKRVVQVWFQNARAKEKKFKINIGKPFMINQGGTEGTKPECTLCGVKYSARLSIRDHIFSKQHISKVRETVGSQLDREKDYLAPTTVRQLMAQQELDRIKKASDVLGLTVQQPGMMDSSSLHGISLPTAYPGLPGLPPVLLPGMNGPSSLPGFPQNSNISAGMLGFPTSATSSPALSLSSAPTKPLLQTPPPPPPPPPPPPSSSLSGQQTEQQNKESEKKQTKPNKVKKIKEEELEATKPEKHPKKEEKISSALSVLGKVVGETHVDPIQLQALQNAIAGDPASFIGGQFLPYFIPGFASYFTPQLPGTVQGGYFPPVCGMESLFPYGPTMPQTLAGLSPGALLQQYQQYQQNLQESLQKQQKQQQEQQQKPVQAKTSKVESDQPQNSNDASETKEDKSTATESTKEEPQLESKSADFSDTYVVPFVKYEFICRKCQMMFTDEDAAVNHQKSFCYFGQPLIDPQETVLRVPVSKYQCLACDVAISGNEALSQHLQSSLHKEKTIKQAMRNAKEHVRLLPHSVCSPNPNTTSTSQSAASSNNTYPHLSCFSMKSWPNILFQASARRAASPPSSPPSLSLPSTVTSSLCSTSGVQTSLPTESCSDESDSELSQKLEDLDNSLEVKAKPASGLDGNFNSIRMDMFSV
UniProt Q8N680: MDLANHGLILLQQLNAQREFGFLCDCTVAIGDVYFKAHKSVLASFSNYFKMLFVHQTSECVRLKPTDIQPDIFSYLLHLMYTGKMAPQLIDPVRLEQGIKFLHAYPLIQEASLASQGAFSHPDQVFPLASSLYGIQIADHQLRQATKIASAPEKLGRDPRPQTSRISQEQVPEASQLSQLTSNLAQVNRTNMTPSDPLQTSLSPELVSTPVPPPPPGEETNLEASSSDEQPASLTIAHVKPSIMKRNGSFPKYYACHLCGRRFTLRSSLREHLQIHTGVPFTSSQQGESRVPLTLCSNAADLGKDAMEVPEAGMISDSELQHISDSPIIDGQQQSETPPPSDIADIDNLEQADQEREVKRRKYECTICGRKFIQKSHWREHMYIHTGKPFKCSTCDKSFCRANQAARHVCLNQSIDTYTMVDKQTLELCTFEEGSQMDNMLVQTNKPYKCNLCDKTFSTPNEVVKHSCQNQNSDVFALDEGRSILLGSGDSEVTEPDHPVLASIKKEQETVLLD
UniProt Q5D1E8: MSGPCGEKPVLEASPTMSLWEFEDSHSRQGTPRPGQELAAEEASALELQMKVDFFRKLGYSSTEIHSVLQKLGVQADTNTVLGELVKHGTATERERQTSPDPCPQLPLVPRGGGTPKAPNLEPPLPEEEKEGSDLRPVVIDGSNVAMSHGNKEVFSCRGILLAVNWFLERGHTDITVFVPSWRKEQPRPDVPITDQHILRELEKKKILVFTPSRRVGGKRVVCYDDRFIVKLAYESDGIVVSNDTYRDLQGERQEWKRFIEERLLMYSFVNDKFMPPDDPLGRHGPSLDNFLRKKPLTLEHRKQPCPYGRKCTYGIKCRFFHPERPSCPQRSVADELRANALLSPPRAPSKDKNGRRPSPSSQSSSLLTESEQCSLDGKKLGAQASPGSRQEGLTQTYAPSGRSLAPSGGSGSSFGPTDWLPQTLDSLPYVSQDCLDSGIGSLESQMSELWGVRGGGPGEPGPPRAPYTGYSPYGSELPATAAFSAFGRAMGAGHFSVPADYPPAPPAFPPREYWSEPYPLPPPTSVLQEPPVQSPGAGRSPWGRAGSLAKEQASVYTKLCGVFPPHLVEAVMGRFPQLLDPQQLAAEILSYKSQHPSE

[1] = compound: C/C(=N\NC(=O)C1=CC(=CC=C1)S(=O)(=O)N2CCOCC2)/C3=C(C=CC(=C3)Cl)O
Summary of the method: as §1

[2] = compound: C1=CC(=CC=C1C2=NC3=C(N2)C=C(C=C3)C(=O)N)OC4=CC=C(C=C4)Cl
Summary of the method: as §1

[3] = compound: C1=CC2=C(C=CC(=C2)/C=C\3/C(=O)NC(=NCC4=CC=CS4)S3)N=C1
Summary of the method: as §1

[4] = compound: C1=CC2=NC=CN=C2C=C1/C=C/3\C(=O)NC(=O)S3
Summary of the method: as §1

[5] = compound: C1=CC=C(C=C1)C2=NC(=C(N2)C3=CC=NC=C3)C4=CC(=C(C=C4)Cl)O
Summary of the method: as §1

[6] = compound: C1=CC=C2C(=C1)C3=NNC4=CC=CC(=C43)C2=O
Summary of the method: as §1

[7] = compound: C1CCN(C1)C(=O)NC2=CC=CC(=C2)NC3=NC=C(C(=N3)NCCC4=CN=CN4)Br
Summary of the method: as §1

[8] = compound: C1CN(CCC1(CC2=CC=C(C=C2)Cl)N)C3=NC=NC4=C3C=CN4
Summary of the method: as §1

IRAK-1-4 Inhibitor I = compound: C1COCCN1CCN2C3=CC=CC=C3N=C2NC(=O)C4=CC(=CC=C4)[N+](=O)[O-] [IRAK-1-4 Inhibitor I]
Summary of the method: as §1

ibrutinib = compound: C=CC(=O)N1CCC[C@@H](n2nc(-c3ccc(Oc4ccccc4)cc3)c3c(N)ncnc32)C1 [ibrutinib]
Summary of the method: as §1

[9] = compound: CC(=O)c1cnc2ccc(-c3cc(Cl)c(O)c(Cl)c3)nc2c1N[C@H]1CC[C@H](CN(C)C)CC1
Summary of the method: as §1

ralimetinib = compound: CC(C)(C)Cn1c(N)nc2ccc(-c3[nH]c(C(C)(C)C)nc3-c3ccc(F)cc3)nc21 [ralimetinib]
Summary of the method: as §1

[10] = compound: CC(C)(O)CC(=O)NCCn1ccc2ncnc(Nc3ccc(Oc4cccc(C(F)(F)F)c4)c(Cl)c3)c21
Summary of the method: as §1

[11] = compound: CC(C)C1=C2N=C(C=C(N2N=C1)NCC3=CC=CC=C3)NCCCCCCN
Summary of the method: as §1

[12] = compound: CC1=C(C(CC(=O)N1)C2=CC=C(C=C2)C(F)(F)F)C(=O)NC3=C(C=C4C(=C3)C=NN4)F
Summary of the method: as §1

[13] = compound: CC1=C(C2=C(C=C1)C(=O)C3=CC=CC=C3N2CCCN)C
Summary of the method: as §1

[14] = compound: CC1=C(C=C(C=C1)NC(=O)C2=CC(=CC=C2)C(C)(C)C#N)NC3=CC4=C(C=C3)N=CN(C4=O)C
Summary of the method: as §1

[15] = compound: CC1=C(C=C(C=C1)NC(=O)C2=CC(=CC=C2)N(C)C)NC(=O)C3=CC=C(C=C3)O
Summary of the method: as §1

[16] = compound: CC1=CC=C(C=C1)SC2=C3C=C(SC3=CN=C2)C(=O)N
Summary of the method: as §1

Measured: log2 fold change

ZCCHC3 (UniProt Q9NUD5)
inactive: erlotinib -0.029 | [1] 0.017 | [2] -0.042 | [3] -0.003 | [4] 0.02 | [5] -0.001 | [6] -0.006 | [7] 0.017 | [8] 0.021 | IRAK-1-4 Inhibitor I -0.004 | ibrutinib 0.028 | [9] -0.031 | ralimetinib 0.031 | [10] 0.046 | [11] 0.006 | [12] 0.025 | [13] -0.009 | [14] -0.047 | [15] 0.001 | [16] 0.027

ZBTB10 (UniProt Q96DT7)
inactive: erlotinib 0.034 | [1] -0.003 | [2] -0.013 | [3] 0.061 | [4] -0.02 | [5] 0.021 | [6] -0.08 | [7] -0.115 | [8] -0.032 | IRAK-1-4 Inhibitor I -0.011 | ibrutinib 0.181 | [9] 0.002 | ralimetinib -0.01 | [10] -0.047 | [11] 0.027 | [13] -0.012 | [14] 0.009 | [15] -0.03 | [16] 0.011

XRCC3 (UniProt O43542)
inactive: erlotinib 0.064 | [1] -0.128 | [2] 0.08 | [3] -0.025 | [4] -0.05 | [5] 0.009 | [6] -0.033 | IRAK-1-4 Inhibitor I 0.028 | ibrutinib 0.154 | ralimetinib 0.026 | [10] 0.005 | [11] 0.041 | [12] 0.049 | [13] 0.008 | [14] -0.004 | [15] -0.025

ZDHHC13 (UniProt Q8IUH4)
inactive: erlotinib 0.245 | [1] 0.058 | [2] -0.146 | [3] 0.076 | [4] -0.111 | [6] 0.096 | ibrutinib 0.118 | [11] -0.036 | [13] 0.076

ZCCHC9 (UniProt Q8N567)
inactive: erlotinib -0.032 | [1] 0.021 | [2] 0.115 | [3] 0.051 | [4] -0.033 | [5] 0.156 | [6] -0.047 | [7] 0.007 | [8] -0.002 | IRAK-1-4 Inhibitor I 0.056 | ibrutinib -0.013 | [9] -0.021 | ralimetinib -0.034 | [10] -0.042 | [11] 0.044 | [13] -0.069 | [14] 0.036 | [15] -0.168 | [16] -0.026

ZFYVE27 isoform 2 (UniProt Q5T4F4)
inactive: erlotinib -0.092 | [1] -0.01 | [2] 0.165 | [3] 0.035 | [4] -0.083 | [5] -0.006 | [6] -0.004 | [7] -0.005 | [8] 0.066 | IRAK-1-4 Inhibitor I -0.045 | ibrutinib 0.098 | [9] -0.012 | ralimetinib -0.034 | [10] -0.047 | [11] 0 | [13] 0.016 | [14] -0.056 | [15] 0.038 | [16] 0.008

ZFAND5 (UniProt O76080)
inactive: erlotinib -0.079 | [1] -0.048 | [2] -0.054 | [3] -0.009 | [4] -0.003 | [5] 0.032 | [6] 0.002 | IRAK-1-4 Inhibitor I -0.012 | ibrutinib -0.008 | [9] -0.132 | ralimetinib -0.04 | [10] 0 | [11] -0.151 | [12] 0.031 | [13] -0.058 | [14] 0.142 | [15] 0.029 | [16] 0.032

ZC3H7A (UniProt Q8IWR0)
inactive: erlotinib 0.077 | [1] -0.011 | [2] -0.054 | [3] 0.039 | [4] -0.012 | [5] -0.042 | [6] -0.089 | [7] 0.039 | [8] 0.021 | IRAK-1-4 Inhibitor I 0.015 | ibrutinib -0.037 | ralimetinib 0.023 | [10] 0.003 | [11] 0.012 | [12] -0.021 | [13] 0.051 | [14] -0.008 | [15] 0.053

ZFYVE28 (UniProt Q9HCC9)
inactive: erlotinib -0.026 | [1] -0.201 | [2] 0.012 | [3] 0.021 | [4] -0.157 | [5] -0.026 | [6] -0.056 | [7] 0.055 | [8] 0.033 | IRAK-1-4 Inhibitor I 0.04 | ibrutinib -0.021 | [9] -0.028 | ralimetinib 0.019 | [10] -0.023 | [11] -0.068 | [12] 0.044 | [13] 0.073 | [14] 0.024 | [15] -0.154 | [16] 0.124

ZDHHC4 (UniProt Q9NPG8)
inactive: erlotinib 0.048 | [2] 0.008 | [4] -0.02 | [5] -0.029 | IRAK-1-4 Inhibitor I 0.028 | ibrutinib 0.062 | [9] 0.082 | ralimetinib -0.059 | [10] -0.088 | [11] 0.249 | [12] -0.024 | [13] -0.101 | [14] -0.075 | [15] 0.099 | [16] -0.236

ZADH2 (UniProt Q8N4Q0)
inactive: erlotinib 0.017 | [1] 0.25 | [2] -0.024 | [3] 0.015 | [4] 0.083 | [5] 0.019 | [6] -0.036 | IRAK-1-4 Inhibitor I 0.026 | ibrutinib 0.05 | [9] -0.002 | ralimetinib 0.014 | [10] -0.027 | [11] -0.046 | [12] -0.013 | [13] -0.088 | [14] -0.054 | [15] -0.01 | [16] -0.125

ZFHX4 isoform 5 (UniProt Q86UP3)
inactive: erlotinib 0.016 | [2] 0.003 | [4] -0.056 | [5] -0.271 | IRAK-1-4 Inhibitor I 0.237 | ibrutinib 0.191 | [9] 0.008 | ralimetinib -0.12 | [10] -0.347 | [11] 0.107 | [12] 0.062 | [14] -0.179 | [15] 0.097 | [16] -0.073

ZFYVE26 (UniProt Q68DK2)
inactive: erlotinib 0.049 | [1] -0.214 | [2] 0.005 | [3] -0.19 | [4] 0.142 | [5] -0.213 | [6] 0.006 | IRAK-1-4 Inhibitor I 0.211 | ibrutinib -0.148 | [9] -0.258 | ralimetinib -0.092 | [10] -0.02 | [11] 0.074 | [12] -0.038 | [14] 0.034 | [15] -0.146 | [16] 0.206

YWHAZ (UniProt E7ESK7)
inactive: erlotinib -0.055 | [1] -0.17 | [2] -0.058 | [3] 0.093 | [4] -0.208 | [6] 0.075 | [7] 0.085 | [8] -0.063 | ibrutinib 0.116 | [9] -0.003 | [11] 0.161 | [13] -0.121 | [14] 0.039 | [16] -0.056

ZBTB3 (UniProt Q9H5J0)
inactive: erlotinib 0.037 | [1] 0.09 | [2] -0.014 | [3] -0.057 | [4] -0.013 | [5] 0.053 | [6] 0.146 | [7] 0 | [8] -0.032 | IRAK-1-4 Inhibitor I -0.019 | ibrutinib 0.029 | [9] 0.097 | ralimetinib -0.014 | [10] -0.028 | [11] 0.052 | [13] 0.05 | [14] 0.103 | [15] 0.071 | [16] -0.223

ZBTB43 (UniProt O43298)
inactive: erlotinib 0.063 | [1] -0.042 | [2] -0.092 | [3] 0.011 | [5] 0.001 | [6] 0.063 | [7] 0.019 | [8] 0.133 | IRAK-1-4 Inhibitor I 0.065 | [9] 0.043 | ralimetinib -0.074 | [10] -0.092 | [11] -0.026 | [13] -0.127 | [14] 0.038 | [15] -0.002 | [16] -0.019

Two successive records already listed:
ZFYVE26 (UniProt Q68DK2)
inactive: erlotinib 0.049 | [1] -0.214 | [2] 0.005 | [3] -0.19 | [4] 0.142 | [5] -0.213 | [6] 0.006 | IRAK-1-4 Inhibitor I 0.211 | ibrutinib -0.148 | [9] -0.258 | ralimetinib -0.092 | [10] -0.02 | [11] 0.074 | [12] -0.038 | [14] 0.034 | [15] -0.146 | [16] 0.206

YWHAZ (UniProt E7ESK7)
inactive: erlotinib -0.055 | [1] -0.17 | [2] -0.058 | [3] 0.093 | [4] -0.208 | [6] 0.075 | [7] 0.085 | [8] -0.063 | ibrutinib 0.116 | [9] -0.003 | [11] 0.161 | [13] -0.121 | [14] 0.039 | [16] -0.056

Further results follow:

ZEB1 isoform 2 (UniProt P37275)
inactive: erlotinib -0.008 | [1] -0.064 | [2] 0.104 | [3] -0.094 | [4] 0.019 | [5] 0.037 | [6] -0.073 | IRAK-1-4 Inhibitor I 0.052 | ibrutinib -0.14 | [9] 0.005 | ralimetinib 0.116 | [10] -0.024 | [11] -0.052 | [13] -0.055 | [14] 0.034 | [15] -0.088 | [16] -0.019

ZBTB2 (UniProt Q8N680)
inactive: erlotinib 0.105 | [1] -0.119 | [2] -0.051 | [3] -0.069 | [4] 0.113 | [5] -0.025 | [6] 0.016 | [7] -0.03 | [8] -0.034 | IRAK-1-4 Inhibitor I 0.086 | ibrutinib -0.241 | ralimetinib -0.034 | [10] -0.07 | [11] -0.043 | [12] -0.066 | [13] -0.041 | [14] -0.025 | [15] -0.02

ZC3H12A (UniProt Q5D1E8)
inactive: erlotinib -0.06 | [2] 0.025 | [5] 0.019 | [7] -0.022 | [8] 0.055 | IRAK-1-4 Inhibitor I 0.112 | ralimetinib 0.004 | [10] -0.04 | [11] -0.043 | [12] -0.231 | [13] -0.235 | [14] -0.051 | [15] 0.069

YY1AP1 isoform 9 (UniProt Q9H869)
inactive: erlotinib 0.126 | [2] -0.037 | [5] 0.171 | [7] -0.058 | [8] -0.02 | IRAK-1-4 Inhibitor I 0 | ralimetinib -0.09 | [10] -0.087 | [11] 0.455 | [13] 0.091 | [14] 0.097 | [15] 0.138
